Source: PMC8216470
No constants are given. Whether binding was seen depends on the method and setting. Some entries that bind do so weakly or less than the wild type.

By UniProt entry, the sequences of proteins in these tests, tags left out.
UniProt Q6P6J0: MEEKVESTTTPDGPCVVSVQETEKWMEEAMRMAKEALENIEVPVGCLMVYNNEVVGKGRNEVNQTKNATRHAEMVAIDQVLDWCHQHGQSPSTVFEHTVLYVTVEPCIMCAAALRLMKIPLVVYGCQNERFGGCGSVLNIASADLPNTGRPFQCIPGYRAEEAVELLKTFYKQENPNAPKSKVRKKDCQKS

Target: T1, mouse ADAT3 (mouse) (UniProt Q6PAT0)
T1 sequence: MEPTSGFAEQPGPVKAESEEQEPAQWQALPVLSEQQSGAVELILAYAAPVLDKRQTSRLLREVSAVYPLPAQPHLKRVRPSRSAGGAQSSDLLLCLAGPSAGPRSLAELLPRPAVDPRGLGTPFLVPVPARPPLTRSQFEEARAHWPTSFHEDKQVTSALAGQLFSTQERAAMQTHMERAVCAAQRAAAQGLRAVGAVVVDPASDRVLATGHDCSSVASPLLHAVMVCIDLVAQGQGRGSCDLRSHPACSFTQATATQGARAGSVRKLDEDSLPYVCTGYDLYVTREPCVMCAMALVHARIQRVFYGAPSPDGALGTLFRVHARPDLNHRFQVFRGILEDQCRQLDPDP
Assay: co-expression and co-purification; untagged ADAT2 co-expressed in E. coli BL21(DE3) with His-thioredoxin-ADAT3 (WT or mutant); Talon resin, release by 3C protease overnight at 4°C, HiTrap Q ion exchange, Superdex 200 in 10 mM Tris HCl pH 8.0, 200 mM NaCl, 0.5 mM TCEP

mouse ADAT2 (from UniProt Q6P6J0 1-191) (enzyme)
binding: binds
